The source of these data is PubChem BioAssay AID2685 (National Center for Advancing Translational Sciences (NCATS), 2010).

This is one part of the list. Further columns of the screen follow, without active or inactive calls. Most of these compounds were active or inconclusive in the main read-out, so they are no random draw. The note in brackets gives the kind of curve behind each potency; many fits are weak.

A short description of the test: qHTS Assay for Lipid Storage Modulators in Drosophila S3 Cells.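 On cell number change: cells counted by Cell Tracker Red CMTPX staining in the red channel.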 The note with it: BODIPY lipid droplet fluorescence, 18-24 h; for cell number change: measured here: cell count max response, cells fed with added oleic acid. The gist of the method:
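Drosophila S3 cells got compounds at several concentrations plus oleic acid (400 uM solution). Laser-scanning cytometry with 488 nm excitation read lipid droplets at 500-530 nm and cells at 575-640 nm. Percent activity was relative to 20 uM Triacsin C.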
Background: In qHTS, concentration-response curves come from the screen itself.

[1] abbreviates: measured here: lipid fluorescence (Fed channel) AC50, cells fed with added oleic acid.
[2] abbreviates: measured here: cell number channel AC50, cells fed with added oleic acid.

A word on the AC50: it is the midpoint of the concentration-response curve, whichever way the signal moves. A lower AC50 goes with activity at low concentration. `O=C1C=C(c2ccccc2)C(O)(c2ccccc2)C1` (stereo not drawn): the cell number change is -15.3%. Further, under setting [1], the AC50 was 4.61 µM [falling, full curve].
Regarding `Cc1noc(C)c1-c1nnc(-c2ccc(OC(F)(F)F)cc2)o1`, the cell number change is 25.8%. In addition, the AC50 under setting [1] is 5.8 µM [rising, full curve, poor fit].
Take `COc1cccc(/C=C/C(=O)N2CCN(S(=O)(=O)c3ccccc3)CC2)c1OC`: the cell number change was -48.4%. For the same compound, the concentration at half-maximal activity (AC50) under setting [2] is 20.6 µM [falling, partial curve]. Also, under setting [1], the AC50 is 23.1 µM [falling, partial curve].
Regarding `COC(=O)C(NNc1ccccc1)(NC(=O)c1ccc(F)cc1)C(F)(F)F` (stereo not drawn), the cell number change came to 49%. Besides, the half-maximal activity concentration (AC50) under setting [2] was 29.1 µM [rising, single point].
As to `CCCCCNCc1ccc(Cl)cc1`, the cell number change worked out at 23.5%. In addition, the AC50 under setting [1] is 1.64 µM [falling, partial curve].
In the case of `Cc1ccc(S(=O)(=O)N2CCCCC2)cc1NC(=O)c1ccc(Cl)nc1`, the cell number change is -19.8%. For the same compound, the AC50 under setting [1] is 4.61 µM [rising, full curve].
Regarding `CC(=O)N1CCCc2cc(S(=O)(=O)N3CCCC(C(=O)Nc4cccc(C)c4)C3)ccc21` (stereo not drawn), the cell number change is -11%.
As for `COc1cc(/C=C2\COC/C(=C\c3cc(OC)c(OC)c(OC)c3)C2=O)cc(OC)c1OC`, the cell number change is -65.4%. The concentration at half-maximal activity (AC50) under setting [2] was 5.17 µM [falling, full curve, poor fit]. Also, the AC50 under setting [1] was 0.116 µM [falling, full curve, poor fit].
`COc1cccc(C(=O)Nc2ccncc2)c1`: the cell number change is 5.33%.
With `CCOC(=O)c1cc2sccc2n1CC(=O)OC(C)C`, the cell number change was -25.5%.
For `Cc1nc2ccccc2c2oc(C(=O)NCc3ccc4c(c3)OCO4)cc12`, the cell number change was 34.7%. Further, the AC50 under setting [2] was 29.1 µM [rising, single point]. The AC50 under setting [1] was 6.51 µM [rising, partial curve].
As for `CCOc1ccc(Cn2nnc(C(=O)Nc3cc(OC)cc(OC)c3)c2N)cc1`, the cell number change came out at 5.57%. Besides, the AC50 under setting [1] is 7.31 µM [rising, partial curve].
On to `Cc1[nH]n(-c2ccccc2)c(=O)c1N=Nc1ccc(Cl)cc1`, for which, under setting [1], the AC50 is 16.4 µM [falling, single point].
On to `CC(CNC(=O)C(C)(C)C)NC(=O)C(C)(C)C` (stereo not drawn), for which the cell number change is -11.9%. The AC50 under setting [1] is 0.231 µM [falling, full curve].
Take `C=CCOc1ccc(CN(C)C(=O)C2CCCO2)cc1` (stereo not drawn): the cell number change was 6.67%.
`Cc1nc2c(C(=O)N3CCCC3)cnn2c(C)c1Cc1c(F)cccc1Cl`: under setting [2], the half-maximal activity concentration (AC50) was 3.26 µM [rising, partial curve].
As for `COc1cc2[nH]c(=S)n(Cc3ccco3)c(=O)c2cc1OC`, the AC50 under setting [1] was 0.0731 µM [rising, full curve, poor fit].
`O=C(c1ccco1)N1CCN(C(=O)C2CCCc3c2[nH]c2ccc(Cl)cc32)CC1` (stereo not drawn): the cell number change worked out at 11.8%.
Regarding `CCCOC(=O)C(C)n1cnc2scc(-c3ccc(C)cc3)c2c1=O` (stereo not drawn), the cell number change was -32.8%. Further, the concentration at half-maximal activity (AC50) under setting [2] is 13 µM [falling, single point]. Moreover, the AC50 under setting [1] was 23.1 µM [rising, single point].
As for `Cc1ccn2c(=O)nc(SCC(=O)Nc3ccc4c(c3)OCO4)nc2c1`, the AC50 under setting [2] was 0.517 µM [rising, full curve].
Turning to `CSc1ncccc1C(=O)Nc1cc(C)ccn1`, the cell number change worked out at 8.49%. The AC50 under setting [2] is 0.651 µM [rising, full curve, poor fit]. Moreover, the AC50 under setting [1] is 0.411 µM [rising, full curve].
For the compound `CCC(=O)N(CCc1ccccc1)Cc1cc2cc(C)ccc2[nH]c1=O`, the cell number change was found to be 21.6%. Also, the half-maximal activity concentration (AC50) under setting [1] was 6.51 µM [rising, single point].
Take `CCCCC(C)(O)C/C=C/[C@H]1[C@H](O)CC(=O)[C@@H]1CCCCCCC(=O)OC` (stereo partly drawn): under setting [1], the AC50 was 13 µM [falling, partial curve].
For the compound `FC(F)(F)c1nnc(-c2ccccc2)nc1Oc1ccc(Cl)cc1Cl`, the cell number change is -67.9%. For the same compound, the AC50 under setting [2] was 18.4 µM [falling, single point].
Take `O=C(CN1C(=O)C2CC=CCC2C1=O)Nc1nc2ccccc2s1` (stereo not drawn): the cell number change was -22.3%. In addition, under setting [1], the AC50 was 0.411 µM [falling, full curve, poor fit].
Consider `O=[N+]([O-])c1ccc(OCc2cnc(Cl)s2)c([N+](=O)[O-])c1`, for which the cell number change turned out to be 28.1%. In addition, under setting [1], the concentration at half-maximal activity (AC50) is 0.461 µM [falling, single point].
Regarding `Cc1ccccc1N1C(=O)CC(c2c[nH]c3ccccc23)C1=O` (stereo not drawn), the cell number change is -26.4%. For the same compound, under setting [1], the half-maximal activity concentration (AC50) was 29.1 µM [falling, single point].
For the compound `O=C(O)CCC(CNS(=O)(=O)c1ccccc1)C(F)(F)F` (stereo not drawn), the cell number change was 28.8%.
On to `COC(=O)c1cc(S(=O)(=O)NCC2CCN(CCc3ccc(OC)cc3)CC2)cn1C`, for which the cell number change is 6.12%. Under setting [1], the AC50 is 0.0058 µM [falling, full curve, poor fit].
With `COc1ccccc1N(C(=O)Cn1nnc(-c2ccc(C)o2)n1)C(C(=O)NC1CCCC1)c1ccncc1` (stereo not drawn), the cell number change was 31.6%. For the same compound, the AC50 under setting [2] is 0.206 µM [rising, full curve].
Turning to `Cc1cc(NC(=O)CSc2nc3[nH]c(=O)cc(O)c3s2)ccc1Br`, under setting [1], the AC50 is 0.651 µM [rising, full curve].
On to `O=C(NC(Cc1c[nH]c2ccccc12)C(=O)O)c1ccccc1` (stereo not drawn), for which the AC50 by setting is: under setting [2], 0.58 µM [rising, full curve, poor fit]; under setting [1], 0.82 µM [rising, single point].
In the case of `Cc1ccc(NC(=O)Cc2ccc(-n3cccc3)cc2)c(C)c1`, the cell number change turned out to be 40.7%. The AC50 under setting [2] is 29.1 µM [rising, single point]. Under setting [1], the AC50 was 29.1 µM [rising, single point].
`Cc1ccc(NC(=O)CSc2nnc(N)s2)c([N+](=O)[O-])c1`: the cell number change stood at 56.6%. In addition, the half-maximal activity concentration (AC50) under setting [2] was 29.1 µM [rising, single point].
In the case of `COc1ccc(OC)c(S(=O)(=O)NCC(=O)NC2CCCCCC2)c1`, the cell number change was -3.06%. Further, under setting [2], the AC50 is 6.51 µM [falling, single point]. Under setting [1], the AC50 was 4.11 µM [falling, single point].
As for `Fc1ccccc1Cc1noc(CN2CCCC(CN3CCOCC3)C2)n1` (stereo not drawn), the cell number change amounted to 22.6%.
Turning to `Cc1cc(C)nc(NC(=NCCc2c[nH]c3ccccc23)NC(=O)C(C)(C)C)n1`, the cell number change is -13.2%. For the same compound, the concentration at half-maximal activity (AC50) under setting [2] is 0.00461 µM [falling, full curve, poor fit].
Regarding `CC(=O)[C@@H]1[C@@H](C(=O)c2ccc(C)cc2)[C@]2(C(=O)Nc3ccccc32)[C@H]2C=Cc3cc(F)ccc3N12`, the cell number change came out at 9.78%. For the same compound, the AC50 under setting [1] is 29.1 µM [falling, single point].
On to `COCCNc1oc(-c2ccco2)nc1S(=O)(=O)c1ccccc1`, for which the cell number change came to 22.8%.
Consider `COc1ccc(-n2nc3c(N4CCCC(C(=O)NCc5ccccc5C)C4)nnc(C)c3c2C)cc1` (stereo not drawn), for which the cell number change is -20.6%. Moreover, under setting [1], the AC50 was 2.91 µM [falling, full curve, poor fit].
Consider `c1ccn2c(SCc3ccc4c(c3)OCO4)nnc2c1`, for which the cell number change is 21.1%. The AC50 under setting [2] is 3.26 µM [rising, single point]. Further, the AC50 under setting [1] was 8.2 µM [rising, partial curve].
As for `N#CC1(NC(=O)COC(=O)c2cc(=O)[nH]c3ccccc23)CCCCC1`, the cell number change worked out at 15.7%.
The same measure, in the same setting: next, `CCCC(=O)Nc1nnc(SCC(=O)Nc2ccc3c(c2)OCCO3)s1`: -17.1%.
As to `O=C(Nc1ccc(OC(F)F)cc1)c1cc(S(=O)(=O)N2CCCCC2)ccc1N1CCOCC1`, the cell number change was -10.9%. Also, the AC50 under setting [1] was 6.51 µM [rising, single point].
As to `CSc1c(CC(=O)Nc2ccccc2)n(C)c2ccccc12`, the cell number change was -33.4%. Further, under setting [2], the AC50 is 14.6 µM [falling, single point]. Also, the AC50 under setting [1] was 0.116 µM [rising, full curve, poor fit].
Turning to `COc1ccc(CCNC(=O)c2[nH]c(C)c(C(C)=O)c2C)cc1`, the cell number change was -15.8%. In addition, the concentration at half-maximal activity (AC50) under setting [1] was 6.51 µM [rising, single point].
With `COc1ccc(S(=O)(=O)NCc2ccco2)cc1C(=O)N1CCOCC1`, the cell number change was 0.833%.
Take `O=C(NCc1ccco1)C1CCN(C(=O)c2ccc(Cl)cc2)CC1`: the cell number change is -1.18%. Besides, under setting [1], the AC50 was 1.16 µM [falling, partial curve].
In the case of `CCOC(=O)c1cc(-c2ccco2)nc2c1c(C)nn2CCC#N`, the cell number change was 43.1%. For the same compound, the concentration at half-maximal activity (AC50) under setting [1] is 3.26 µM [rising, partial curve].
As to `CC(=O)c1cccc(NC(=O)c2ccc3ccccc3c2)c1`, the cell number change is -23.4%. Under setting [1], the AC50 is 29.1 µM [falling, single point].
In the case of `Cc1ccc(-n2nc(C)c(C(=O)N3CCN(C(=O)c4ccco4)CC3)c2-n2cccc2)cc1`, the AC50 under setting [1] was 20.6 µM [falling, partial curve, poor fit].
In the case of `CCCn1c(SCC(=O)Nc2cccc(C)n2)nnc1-c1ccco1`, the cell number change is -0.608%.
For `COc1cc(NC(=O)c2cc([N+](=O)[O-])ccc2NC(=O)CNC2CCCCC2C)cc(OC)c1` (stereo not drawn), the cell number change was found to be 1.32%.
For `Cc1cc(C)nc(NC(=NCCc2c[nH]c3ccccc23)NC(=O)Nc2ccc(Cl)c(Cl)c2)n1`, the cell number change was 20%. Under setting [2], the AC50 was 0.103 µM [rising, full curve, poor fit]. Under setting [1], the AC50 was 29.1 µM [rising, single point].
On to `CC(NC(=O)CN1C(=O)NC(C)(c2cccc3ccccc23)C1=O)c1ccccc1` (stereo not drawn), for which the cell number change turned out to be 3.75%.
As to `COc1ccc(/C=N/NC(=S)Nc2ccccc2)cc1COc1ccc(Br)cc1`, the cell number change is 3.08%. The AC50 under setting [1] was 0.164 µM [rising, full curve, poor fit].
`CCCCSc1nc(C)c(C(C)=O)cc1C#N`: the cell number change is -27.8%. Under setting [1], the AC50 is 32.6 µM [falling, single point].
On to `Cc1c(F)cccc1NS(=O)(=O)c1ccc2c(c1)NC(=O)CO2`, for which the cell number change was 22.4%. Also, the AC50 under setting [2] is 6.51 µM [falling, single point].
With `Cc1oc(-c2ccc(Cl)cc2)nc1CN1CCCC(C(=O)NCc2cccnc2)C1` (stereo not drawn), the cell number change worked out at 21.3%. In addition, the AC50 under setting [1] was 20.6 µM [rising, single point].
As for `CC(C(=O)Nc1ccc(Cl)cc1)N1C(=O)NC2(CCCC2)C1=O` (stereo not drawn), the cell number change was determined as 15.3%. The AC50 under setting [1] is 6.51 µM [falling, single point].
For the compound `CCOc1ccc(NC(=O)COc2ccccc2)c([N+](=O)[O-])c1`, the cell number change was 5.76%. In addition, the AC50 under setting [1] is 2.06 µM [falling, partial curve].
In the case of `N#C/C(=C\c1ccccc1)C(=O)Nc1ccccn1`, the cell number change was 14.5%. Further, the half-maximal activity concentration (AC50) under setting [1] was 29.1 µM [rising, single point].
